“Also recorded” adds a separate entry of the source.
How the values were obtained:
[1] = system: S. aureus; test: MIC/MBC of native and heated Cipro/Oflox (heat stability); type: cell-based, Staphylococcus aureus; conditions: heated versus native antibiotic
Description: An inoculum of S. aureus was diluted to obtain a bacterial concentration of 10^6 S. aureus/ml. […] V. Mosby, St. Louis, 1986]. Antibiotic concentrations in the assay were […].

[2] = Structural stability to heating conditions, dye bath analysis via HPLC; type: physicochemical; conditions: heating conditions utilized in pad/heat dyeing; data not shown

With O=C(O)c1cn(C2CC2)c2cc(N3CCNCC3)c(F)cc2c1=O [Cipro, Ciprofloxacin] the “antimicrobial activity (MIC/MBC) after exposure to standard dye bath / pad/heat heating conditions” value [1] was “retained; also recorded: no variation in antimicrobial activity” and the “structural stability upon dye bath analysis via HPLC” value [2] was “no structural degradation”.
